Measured values from US20260116996A1 (REGENTS OF THE UNIVERSITY OF MINNESOTA, published 2026).

Key:
[1] = target: serpin B13 (target antigen, species not stated); assay: surface plasmon resonance
[2] = target: serpin B13 (target antigen, species not stated); assay: ELISA and SPR

| binding [1] | binding [2] | Binder |
| --- | --- | --- |
| binds | – | recombinant fully human anti-serpinB13 antibody Clone 3 (antibody, human IgG1, kappa, V domains shown, also called mAb3; CLONE3-H(m1) / CLONE3-L(m1)) VH: QVQLQQWGAGLLKPSETLSLTCAVYGGSFSGYYWSWIRQPPGKGLEWIGEINHSGSTNYNPSLKSRVTISVDTSKNQFSLKLSSVTAADTAVYYCARRYCSGGSCYLVGTGSELDYWGQGTLVTVSS VL: DIQMTQSPSTLSASVGDRVTITCRASQSISSWLAWYQQKPGKAPKLLIYKASSLEIGVPSRFSGSGYGTEFTLTISSLQPDDFATYYCLQYSTHSTFGQGTRVEIKR |
| binds | – | mouse monoclonal antibody to serpin B13 (clone B29) (antibody, V domains shown) VH: QIQLVQSGPELKKPGETVKISCKASGYTFTTYGMSWVKQAPGKGLKWMGWINTYSGMPTYADDFKGRFAFSLETSATTAYLQINNLKNEDTATYFCARPLLGLDYWGQGTTLTVSS VL: DIVMTQTPLSLSVTIGQPASISCKSSQSLLHSDGKTFLNWFLQRPGQSPKLLIYLVSKLESGIPDRFSGSGSGTDFTLKISRVEVEDLGVYYCLQHTHFPLTFGAGTKLEIK |

Further lines, the binder ahead of its results:

| Binder | binding [1] | binding [2] |
| --- | --- | --- |
| recombinant fully human anti-serpinB13 antibody Clone 2 (antibody, human IgG1, kappa, V domains shown, also called mAb2; CLONE2-H(m1) / CLONE2-L(m1)) VH: QMQLVQSGGGVVRPGGSLRLSCAASGFTFDDYGMSWVRQAPGKGLEWVSGINWNGGSTGYADSVKGRFTISRDNAKNSLYLQMNSLRAEDTALYYCARESSMTTVTTYLLREVGVGLDFDYWGQGTLVTVSS VL: ETTLTQSPGTLSLSPGERATLSCRASQTVSGSYLAWYQQKPGQPPRLLIYGASSRATGIPDRFSGSGSGTDFTLTISRLEPEDFAVYYCQDYGSSRTFGQGTKVELKR | binds | – |
| B29_graft humanized antibody (antibody, human IgG1, kappa, V domains shown) VH: EIQLVESGGGLVQPGGSVRLSCAASGYNFKTYGMSWVRQAPGKGLEWMGWINTYSGMPTYADDFKGRFTFSLDTSKNTAYLQINSLRAEDTAVYFCARPLLGLDYWGQGTLVTVSS VL: DIQMTQSPSSLSASVGDRVTITCKSSQSLLHSDGKTFLNWFQQKPGKSPKLLIYLVSKLESGVPSRFSGSGSGTDFTLTISSLQPEDFATYYCLQHTHFPLTFGQGTKVEIKR | – | binds |
| B29 mouse/human chimeric IgG (antibody, V domains shown) VH: QIQLVQSGPELKKPGETVKISCKASGYTFTTYGMSWVKQAPGKGLKWMGWINTYSGMPTYADDFKGRFAFSLETSATTAYLQINNLKNEDTATYFCARPLLGLDYWGQGTTLTVSS VL: DIVMTQTPLSLSVTIGQPASISCKSSQSLLHSDGKTFLNWFLQRPGQSPKLLIYLVSKLESGIPDRFSGSGSGTDFTLKISRVEVEDLGVYYCLQHTHFPLTFGAGTKLEIKR | – | binds |

These are yes or no findings as the source states them, for the method shown. A result given as binding can be weak or reduced; the word gives no strength.
